Values from PubChem BioAssay AID1224828 (NIAID, 2016).

Purpose: 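Find genes required for NF-kappaB p65 moving into the nucleus after LPS in mouse macrophages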 (primary screen)
Cells: mouse RAW264.7 G9 macrophage reporter cells (GFP-p65, Tnf promoter-mCherry)
Reagents: siRNA pool against mouse genes, 100 nM
Duration: 2 days siRNA transfection, then 40 min LPS before fixation
Conditions: LPS (Salmonella minnesota R595) at 10 ng/ml
Read-out: 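Microscopy ratio of nuclear to perinuclear-ring GFP-p65 signal, scaled to the plate median; gene score is the average of two replicate robust z-scores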
Reading the numbers: p65 translocation robust z-score: higher = more nuclear NF-kappaB p65 after LPS than the plate median; nuclear/cytoplasmic p65 ratio: higher = more nuclear NF-kappaB p65
Call rule: 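Called active when z exceeds 3.3 or falls under -1.56 (median of Tlr4 controls), giving activity score of at least 50; no calls for control wells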
Calls: active = hit (p65 shift raised or lowered); inactive = no clear change
Shown is an unselected part of about 17,000 reagents tested. In the full data, 762 (4.5%) got an active call. 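Active calls include both raised and lowered p65 entry, mostly lowered; wells with fewer than 50 cells lack a z-score.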 The raw values are shown without normalisation. Entries without a mark were called inactive. The numbers tell different reagents against one gene apart. A reagent listed more than once was tested more than once; the source does not tell the runs apart.

Target gene	reagent no.	p65 translocation robust z-score	nuclear/cytoplasmic p65 ratio, rep 1	nuclear/cytoplasmic p65 ratio, rep 2	low cell count flag
Or52m1	1		1.36	1.26	fewer than 50 cells per well; well left out of scoring
Eef1a1	1	-1.25	1.31	1.19	enough cells to score
Agk	1	0.62	1.67	1.56	enough cells to score
Agk	1		1.22	1.29	fewer than 50 cells per well; well left out of scoring
Cuzd1	1	-0.73	1.42	1.72	enough cells to score
AY358078	1	-0.51	1.62	1.48	enough cells to score
Ccl5	1	-0.36	1.47	1.33	enough cells to score
Ly6i	1	0.29	1.78	1.57	enough cells to score
Myl9	1	0.21	1.46	1.38	enough cells to score
Klk1	1	-2.17 (active)	1.23	1.15	enough cells to score
Entrep2	1	-0.35	1.29	1.45	enough cells to score
Eif4enif1	1	0.15	1.48	1.52	enough cells to score
Adcy3	1	-1.32	1.37	1.52	enough cells to score
Senp3	1		1.38	1.28	fewer than 50 cells per well; well left out of scoring
Sox17	1	0.94	1.56	1.32	enough cells to score
Irf6	1	-1.45	1.21	1.26	enough cells to score
Dab2	1	-0.6	1.4	1.28	enough cells to score
Dab2	2	-0.2	1.51	1.67	enough cells to score
1700001O22Rik	1	0.96	1.49	1.58	enough cells to score
Anxa8	1	-0.78	1.53	1.48	enough cells to score
Abcb7	1	-0.32	1.56	1.57	enough cells to score
Spata18	1	1.33	1.49	1.66	enough cells to score
Pth	1	-0.69	1.47	1.42	enough cells to score
Zfp709	1	-0.15	1.53	1.84	enough cells to score

A stretch from the list above, for reference:
Target gene	reagent no.	p65 translocation robust z-score	nuclear/cytoplasmic p65 ratio, rep 1	nuclear/cytoplasmic p65 ratio, rep 2	low cell count flag
Cuzd1	1	-0.73	1.42	1.72	enough cells to score
AY358078	1	-0.51	1.62	1.48	enough cells to score
Ccl5	1	-0.36	1.47	1.33	enough cells to score
